Experimental data taken from the supplement of paper PMC10849652.
This is one part of the list.

The chains behind the UniProt entries cited, without tags or fusion partners. Where a name states a change or a piece, a line headed by the entry shows the natural chain unless it says otherwise.
UniProt Q86VX2, whole entry, looked up: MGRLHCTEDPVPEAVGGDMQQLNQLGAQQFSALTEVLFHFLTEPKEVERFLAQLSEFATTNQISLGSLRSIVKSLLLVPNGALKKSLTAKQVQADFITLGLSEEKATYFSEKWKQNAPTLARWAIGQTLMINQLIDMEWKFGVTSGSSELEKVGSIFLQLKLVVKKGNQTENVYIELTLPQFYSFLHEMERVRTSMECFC
UniProt O75534: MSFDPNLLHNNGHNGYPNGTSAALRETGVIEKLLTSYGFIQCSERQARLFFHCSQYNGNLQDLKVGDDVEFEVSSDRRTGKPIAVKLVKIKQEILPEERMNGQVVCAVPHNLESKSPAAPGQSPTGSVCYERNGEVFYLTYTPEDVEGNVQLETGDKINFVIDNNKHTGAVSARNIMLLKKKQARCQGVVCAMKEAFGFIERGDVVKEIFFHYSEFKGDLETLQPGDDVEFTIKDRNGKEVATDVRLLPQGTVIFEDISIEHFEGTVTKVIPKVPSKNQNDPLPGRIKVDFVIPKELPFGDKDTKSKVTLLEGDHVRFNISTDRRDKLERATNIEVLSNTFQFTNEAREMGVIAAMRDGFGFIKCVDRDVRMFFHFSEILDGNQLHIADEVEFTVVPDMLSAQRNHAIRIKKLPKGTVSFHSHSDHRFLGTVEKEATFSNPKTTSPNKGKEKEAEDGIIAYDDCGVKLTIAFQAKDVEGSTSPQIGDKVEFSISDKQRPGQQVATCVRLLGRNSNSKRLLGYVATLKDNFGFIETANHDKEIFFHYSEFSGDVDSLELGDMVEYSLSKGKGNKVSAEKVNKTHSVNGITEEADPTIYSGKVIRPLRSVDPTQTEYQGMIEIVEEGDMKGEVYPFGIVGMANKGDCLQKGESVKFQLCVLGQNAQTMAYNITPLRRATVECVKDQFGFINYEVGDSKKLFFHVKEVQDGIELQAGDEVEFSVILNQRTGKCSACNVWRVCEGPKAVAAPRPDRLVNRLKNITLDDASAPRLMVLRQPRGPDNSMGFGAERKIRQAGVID
UniProt Q9P021, whole entry, looked up: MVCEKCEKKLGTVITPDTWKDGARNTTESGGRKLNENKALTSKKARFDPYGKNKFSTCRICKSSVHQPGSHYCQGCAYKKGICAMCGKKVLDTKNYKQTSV
UniProt Q92793, whole entry, looked up: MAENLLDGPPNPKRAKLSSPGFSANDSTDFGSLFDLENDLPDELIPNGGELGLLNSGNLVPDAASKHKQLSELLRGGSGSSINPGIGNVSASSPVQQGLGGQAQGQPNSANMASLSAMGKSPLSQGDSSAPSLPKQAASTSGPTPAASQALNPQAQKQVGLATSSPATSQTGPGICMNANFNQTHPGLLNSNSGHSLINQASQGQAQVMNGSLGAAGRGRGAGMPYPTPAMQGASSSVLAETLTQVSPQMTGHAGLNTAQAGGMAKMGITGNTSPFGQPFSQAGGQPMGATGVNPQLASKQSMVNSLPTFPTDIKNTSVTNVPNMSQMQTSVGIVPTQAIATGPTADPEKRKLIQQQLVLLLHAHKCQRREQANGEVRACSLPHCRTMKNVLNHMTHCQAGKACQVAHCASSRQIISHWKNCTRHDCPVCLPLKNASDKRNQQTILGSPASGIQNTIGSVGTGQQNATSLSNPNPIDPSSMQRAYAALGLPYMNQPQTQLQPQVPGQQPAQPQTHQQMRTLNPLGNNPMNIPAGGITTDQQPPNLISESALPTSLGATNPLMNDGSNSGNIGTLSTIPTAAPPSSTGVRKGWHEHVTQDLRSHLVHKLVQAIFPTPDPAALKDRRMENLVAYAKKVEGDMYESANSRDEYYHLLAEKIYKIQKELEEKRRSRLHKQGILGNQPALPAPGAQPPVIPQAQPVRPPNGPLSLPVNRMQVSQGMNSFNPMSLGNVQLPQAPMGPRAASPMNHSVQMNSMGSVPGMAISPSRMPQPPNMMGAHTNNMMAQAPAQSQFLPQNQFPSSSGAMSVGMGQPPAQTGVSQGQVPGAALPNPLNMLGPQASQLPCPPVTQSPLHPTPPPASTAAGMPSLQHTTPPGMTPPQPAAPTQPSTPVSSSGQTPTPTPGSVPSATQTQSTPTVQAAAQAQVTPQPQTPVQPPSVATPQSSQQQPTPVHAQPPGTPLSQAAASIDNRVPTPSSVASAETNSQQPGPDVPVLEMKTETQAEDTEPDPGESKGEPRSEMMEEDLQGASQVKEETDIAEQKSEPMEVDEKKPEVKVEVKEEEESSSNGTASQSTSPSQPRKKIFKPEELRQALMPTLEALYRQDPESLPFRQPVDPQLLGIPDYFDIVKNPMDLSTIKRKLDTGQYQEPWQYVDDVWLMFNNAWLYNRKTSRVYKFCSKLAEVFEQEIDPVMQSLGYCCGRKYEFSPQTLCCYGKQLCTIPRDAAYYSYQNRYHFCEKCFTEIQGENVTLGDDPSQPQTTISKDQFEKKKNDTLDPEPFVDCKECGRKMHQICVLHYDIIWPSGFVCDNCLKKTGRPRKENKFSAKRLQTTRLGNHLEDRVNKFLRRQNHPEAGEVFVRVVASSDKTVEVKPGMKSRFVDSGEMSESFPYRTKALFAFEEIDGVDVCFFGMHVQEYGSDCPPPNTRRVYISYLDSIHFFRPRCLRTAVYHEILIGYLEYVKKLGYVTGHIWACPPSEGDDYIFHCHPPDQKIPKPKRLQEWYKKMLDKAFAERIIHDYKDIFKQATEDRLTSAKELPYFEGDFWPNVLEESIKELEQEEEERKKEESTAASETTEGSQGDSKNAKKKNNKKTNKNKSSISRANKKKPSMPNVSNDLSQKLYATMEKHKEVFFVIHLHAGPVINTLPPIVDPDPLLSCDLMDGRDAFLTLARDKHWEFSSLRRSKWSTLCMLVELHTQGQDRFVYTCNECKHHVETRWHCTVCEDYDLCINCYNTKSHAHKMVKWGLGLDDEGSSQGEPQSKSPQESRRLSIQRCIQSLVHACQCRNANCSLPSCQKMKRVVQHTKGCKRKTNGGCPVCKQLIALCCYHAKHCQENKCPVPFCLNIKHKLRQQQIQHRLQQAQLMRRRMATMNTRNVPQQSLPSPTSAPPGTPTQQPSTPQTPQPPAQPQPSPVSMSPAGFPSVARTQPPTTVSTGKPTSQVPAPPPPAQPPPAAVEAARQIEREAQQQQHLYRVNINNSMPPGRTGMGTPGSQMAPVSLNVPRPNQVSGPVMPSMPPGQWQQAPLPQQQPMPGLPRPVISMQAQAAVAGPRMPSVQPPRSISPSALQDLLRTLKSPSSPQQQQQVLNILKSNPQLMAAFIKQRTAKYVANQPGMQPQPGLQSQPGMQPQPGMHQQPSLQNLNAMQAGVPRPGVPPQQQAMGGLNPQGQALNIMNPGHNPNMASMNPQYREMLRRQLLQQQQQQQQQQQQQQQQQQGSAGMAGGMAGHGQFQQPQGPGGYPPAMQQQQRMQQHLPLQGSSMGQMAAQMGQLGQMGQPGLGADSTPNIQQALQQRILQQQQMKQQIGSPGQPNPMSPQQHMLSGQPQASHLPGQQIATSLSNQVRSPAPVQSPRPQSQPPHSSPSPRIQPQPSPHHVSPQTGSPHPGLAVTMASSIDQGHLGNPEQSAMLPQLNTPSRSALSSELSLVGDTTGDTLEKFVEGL
UniProt Q96FN4: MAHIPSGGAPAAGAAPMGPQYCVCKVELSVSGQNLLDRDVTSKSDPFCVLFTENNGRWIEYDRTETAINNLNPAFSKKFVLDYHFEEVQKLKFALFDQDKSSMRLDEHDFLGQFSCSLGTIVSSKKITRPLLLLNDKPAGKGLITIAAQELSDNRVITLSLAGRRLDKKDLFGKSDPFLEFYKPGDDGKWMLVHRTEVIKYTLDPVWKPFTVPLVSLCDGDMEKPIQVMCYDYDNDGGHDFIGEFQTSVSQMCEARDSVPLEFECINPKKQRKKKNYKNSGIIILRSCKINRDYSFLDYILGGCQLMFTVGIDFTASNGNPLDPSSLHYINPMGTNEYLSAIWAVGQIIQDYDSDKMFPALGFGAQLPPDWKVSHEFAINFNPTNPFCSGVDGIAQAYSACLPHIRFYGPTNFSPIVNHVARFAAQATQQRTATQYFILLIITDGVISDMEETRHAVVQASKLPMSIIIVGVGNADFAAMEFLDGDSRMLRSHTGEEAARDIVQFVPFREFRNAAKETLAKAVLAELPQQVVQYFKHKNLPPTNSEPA
UniProt P14406, whole entry, looked up: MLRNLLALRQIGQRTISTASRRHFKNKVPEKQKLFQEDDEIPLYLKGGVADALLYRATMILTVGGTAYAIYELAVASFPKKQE
UniProt Q8N752: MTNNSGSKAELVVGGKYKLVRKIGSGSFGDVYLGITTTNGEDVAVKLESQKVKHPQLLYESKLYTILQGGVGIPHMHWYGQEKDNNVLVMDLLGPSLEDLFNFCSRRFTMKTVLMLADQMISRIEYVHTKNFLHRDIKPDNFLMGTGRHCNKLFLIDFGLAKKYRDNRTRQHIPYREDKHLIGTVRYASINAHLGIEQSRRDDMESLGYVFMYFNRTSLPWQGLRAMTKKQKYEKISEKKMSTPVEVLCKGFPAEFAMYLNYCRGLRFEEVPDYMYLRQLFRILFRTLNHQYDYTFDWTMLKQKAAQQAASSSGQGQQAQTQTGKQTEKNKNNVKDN
UniProt P61201: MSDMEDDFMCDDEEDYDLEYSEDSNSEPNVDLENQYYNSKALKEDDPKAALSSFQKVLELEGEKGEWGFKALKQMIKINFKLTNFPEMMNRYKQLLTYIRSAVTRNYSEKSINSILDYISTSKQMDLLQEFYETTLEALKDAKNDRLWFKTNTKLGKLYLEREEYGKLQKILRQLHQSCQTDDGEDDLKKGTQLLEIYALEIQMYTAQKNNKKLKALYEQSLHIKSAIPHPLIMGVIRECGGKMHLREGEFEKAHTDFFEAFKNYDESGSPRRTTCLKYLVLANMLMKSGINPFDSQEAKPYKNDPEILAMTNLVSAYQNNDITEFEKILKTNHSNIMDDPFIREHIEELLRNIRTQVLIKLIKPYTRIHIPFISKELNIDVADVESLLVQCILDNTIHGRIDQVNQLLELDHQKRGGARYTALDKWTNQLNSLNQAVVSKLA
UniProt Q9BSW2: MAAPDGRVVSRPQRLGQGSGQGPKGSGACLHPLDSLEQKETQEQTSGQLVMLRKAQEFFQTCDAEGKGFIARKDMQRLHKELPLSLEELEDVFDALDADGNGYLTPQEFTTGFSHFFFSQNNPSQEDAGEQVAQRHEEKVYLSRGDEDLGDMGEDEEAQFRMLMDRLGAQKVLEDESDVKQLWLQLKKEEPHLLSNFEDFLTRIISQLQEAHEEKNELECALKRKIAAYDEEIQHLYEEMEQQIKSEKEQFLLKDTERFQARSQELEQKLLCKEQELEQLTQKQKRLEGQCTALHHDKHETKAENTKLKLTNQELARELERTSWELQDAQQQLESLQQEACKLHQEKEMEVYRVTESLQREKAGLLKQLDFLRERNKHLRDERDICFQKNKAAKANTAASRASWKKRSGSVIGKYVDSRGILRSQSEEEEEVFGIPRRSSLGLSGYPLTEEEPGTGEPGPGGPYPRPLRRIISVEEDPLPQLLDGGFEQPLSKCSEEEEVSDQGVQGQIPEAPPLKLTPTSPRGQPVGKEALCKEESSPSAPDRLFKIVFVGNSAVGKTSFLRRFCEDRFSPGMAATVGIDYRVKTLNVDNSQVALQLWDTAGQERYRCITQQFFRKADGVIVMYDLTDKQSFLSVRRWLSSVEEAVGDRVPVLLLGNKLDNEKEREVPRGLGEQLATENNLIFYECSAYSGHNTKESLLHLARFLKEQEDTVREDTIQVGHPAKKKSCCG
UniProt O75718: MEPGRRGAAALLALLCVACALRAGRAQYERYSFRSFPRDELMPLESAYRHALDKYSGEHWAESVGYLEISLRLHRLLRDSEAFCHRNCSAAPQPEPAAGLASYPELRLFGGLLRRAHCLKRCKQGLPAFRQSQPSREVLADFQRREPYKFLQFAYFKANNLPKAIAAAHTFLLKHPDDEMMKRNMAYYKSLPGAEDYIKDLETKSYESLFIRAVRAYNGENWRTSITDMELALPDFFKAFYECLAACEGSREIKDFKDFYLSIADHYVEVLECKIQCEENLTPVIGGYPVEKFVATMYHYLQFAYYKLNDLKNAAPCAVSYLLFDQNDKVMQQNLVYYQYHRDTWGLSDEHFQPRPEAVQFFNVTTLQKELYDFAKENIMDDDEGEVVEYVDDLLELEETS
UniProt Q5HYK3: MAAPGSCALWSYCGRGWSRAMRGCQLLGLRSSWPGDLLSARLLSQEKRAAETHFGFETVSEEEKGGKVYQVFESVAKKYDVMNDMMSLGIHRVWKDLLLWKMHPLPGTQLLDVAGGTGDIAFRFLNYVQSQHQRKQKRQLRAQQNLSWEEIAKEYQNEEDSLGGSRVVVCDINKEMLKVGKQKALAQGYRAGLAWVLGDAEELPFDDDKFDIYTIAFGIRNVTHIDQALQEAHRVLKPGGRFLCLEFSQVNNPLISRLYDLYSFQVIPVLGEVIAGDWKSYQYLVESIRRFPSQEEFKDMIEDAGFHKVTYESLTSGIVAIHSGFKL

Assays:
Experiment in all cases: log2 fold change, soluble protein after heating vs DMSO (PISA); higher = thermal stabilisation; K562 cells, 10 uM, 30 min; active = over 0.2 and 3.5 SD of the protein, either way, in both replicates (recomputed)
[1] = compound: CS(=O)(=O)c1ccc(-c2cnc(N)c(C(=O)Nc3ccccc3)n2)cc1
Outline: (§1)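 K562 cells at 2×10^6 cells/mL were given 10 μM compound for 30 min. Aliquots then went through 3 min of heating across 48°C-58°C, were pooled, and were extracted in PBS with 0.5% NP-40 at 4°C, and the supernatant after 21,000xg for 90 min was quantified by TMTpro 16plex LC-MS/MS with channel sums equalised. Thermal stability relative to control samples, from duplicates, is given as log2 fold change.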

crizotinib = compound: C[C@@H](Oc1cc(-c2cnn(C3CCNCC3)c2)cnc1N)c1c(Cl)ccc(F)c1Cl [crizotinib]
Outline: as §1

[2] = compound: C[C@@H]1COCCN1C2=NC(=NC(=C2)C3(CC3)S(=O)(=O)C)C4=C5C=CNC5=CC=C4
Outline: as §1

[3] = compound: C[C@H](C1=CC=C(C=C1)C(=O)NC2=C3C=CNC3=NC=C2)N
Outline: as §1

duvelisib = compound: C[C@H](Nc1ncnc2nc[nH]c12)c1cc2cccc(Cl)c2c(=O)n1-c1ccccc1 [duvelisib]
Outline: as §1

gandotinib = compound: Cc1cc(Nc2cc(CN3CCOCC3)c3nc(C)c(Cc4ccc(Cl)cc4F)n3n2)n[nH]1 [gandotinib]
Outline: as §1

tozasertib = compound: Cc1cc(Nc2cc(N3CCN(C)CC3)nc(Sc3ccc(NC(=O)C4CC4)cc3)n2)n[nH]1 [tozasertib]
Outline: as §1

[4] = compound: Cc1cc(SCc2sc(-c3ccc(C(F)(F)F)cc3)nc2C)ccc1OCC(=O)O
Outline: as §1

doramapimod = compound: Cc1ccc(-n2nc(C(C)(C)C)cc2NC(=O)Nc2ccc(OCCN3CCOCC3)c3ccccc23)cc1 [doramapimod]
Outline: as §1

ispinesib = compound: Cc1ccc(C(=O)N(CCCN)[C@@H](c2nc3cc(Cl)ccc3c(=O)n2Cc2ccccc2)C(C)C)cc1 [ispinesib]
Outline: as §1

bafetinib = compound: Cc1ccc(NC(=O)c2ccc(CN3CC[C@H](N(C)C)C3)c(C(F)(F)F)c2)cc1Nc1nccc(-c2cncnc2)n1 [bafetinib]
Outline: as §1

[5] = compound: Cc1cccc(CC(=O)N2CCc3c2ccc(-c2cn(C)c4ncnc(N)c24)c3F)n1
Outline: as §1

nilotinib = compound: Cc1cn(-c2cc(NC(=O)c3ccc(C)c(Nc4nccc(-c5cccnc5)n4)c3)cc(C(F)(F)F)c2)cn1 [nilotinib]
Outline: as §1

[6] = compound: Cc1nc(Nc2n[nH]c3c2CN(C(=O)N[C@H](CN(C)C)c2ccccc2)C3(C)C)c2sccc2n1
Outline: as §1

dasatinib = compound: Cc1nc(Nc2ncc(C(=O)Nc3c(C)cccc3Cl)s2)cc(N2CCN(CCO)CC2)n1 [dasatinib]
Outline: as §1

[7] = compound: Cc1ncc(-c2ccnc(Nc3ccc(S(C)(=O)=O)cc3)n2)n1C(C)C
Outline: as §1

[8] = compound: Cn1cc(-c2ccc3c(c2)CCN3C(=O)Cc2cccc(C(F)(F)F)c2)c2c(N)ncnc21
Outline: as §1

[9] = compound: Cn1cc(-c2ccc3nnc(C(F)(F)c4ccc5ncccc5c4)n3n2)cn1
Outline: as §1

tipifarnib = compound: Cn1cncc1[C@@](N)(c1ccc(Cl)cc1)c1ccc2c(c1)c(-c1cccc(Cl)c1)cc(=O)n2C [tipifarnib]
Outline: as §1

mubritinib = compound: FC(F)(F)c1ccc(/C=C/c2nc(COc3ccc(CCCCn4ccnn4)cc3)co2)cc1 [mubritinib]
Outline: as §1

Measured: log2 fold change

CPOX (UniProt P36551)
inactive: [1] 0.012 | crizotinib 0.089 | [2] 0.042 | [3] -0.067 | duvelisib 0.116 | gandotinib 0.073 | tozasertib 0.005 | [4] 0.032 | doramapimod -0.035 | ispinesib 0.03 | bafetinib 0.02 | [5] -0.006 | nilotinib 0.092 | [6] 0.023 | dasatinib 0.043 | [7] -0.023 | [8] 0.01 | [9] 0.029 | tipifarnib -0.017 | mubritinib -0.023

CPNE3 (UniProt O75131)
inactive: [1] 0.006 | crizotinib 0.1 | [2] -0.016 | [3] -0.112 | duvelisib 0 | gandotinib 0.01 | tozasertib -0.061 | [4] -0.016 | doramapimod -0.067 | ispinesib 0.126 | bafetinib -0.02 | [5] 0.004 | nilotinib 0.046 | [6] -0.083 | dasatinib 0.008 | [7] 0.007 | [8] 0.04 | [9] -0.036 | tipifarnib 0.013 | mubritinib 0.105

COMMD7 (UniProt Q86VX2)
inactive: [1] 0.05 | crizotinib -0.067 | [2] -0.104 | [3] -0.085 | duvelisib 0.093 | gandotinib 0.042 | tozasertib 0.038 | [4] -0.017 | doramapimod 0.025 | ispinesib -0.045 | bafetinib -0.075 | [5] -0.016 | nilotinib 0.026 | [6] 0.021 | dasatinib 0.065 | [7] 0.05 | [8] -0.008 | [9] -0.036 | tipifarnib -0.045 | mubritinib 0.045

CSDE1 isoform 4 (UniProt O75534)
inactive: [1] -0.001 | crizotinib -0.101 | [2] -0.199 | [3] 0.321 | duvelisib -0.073 | gandotinib 0.058 | tozasertib 0.071 | [4] 0.128 | doramapimod 0.158 | ispinesib -0.306 | bafetinib 0.133 | [5] 0.051 | nilotinib -0.11 | [6] -0.176 | dasatinib -0.013 | [7] -0.025 | [8] -0.097 | [9] -0.15 | tipifarnib -0.023 | mubritinib -0.198

CRIPT (UniProt Q9P021)
inactive: [1] -0.008 | crizotinib 0.071 | [2] -0.127 | [3] -0.039 | duvelisib 0.097 | gandotinib 0 | tozasertib 0.025 | [4] -0.056 | doramapimod 0.011 | ispinesib 0.025 | bafetinib -0.022 | [5] 0.046 | nilotinib 0.011 | [6] 0.052 | dasatinib -0.057 | [7] -0.032 | [8] 0.061 | [9] -0.042 | tipifarnib 0.047 | mubritinib -0.015

CREBBP (UniProt Q92793)
inactive: [1] 0.021 | crizotinib 0.005 | [2] 0.041 | [3] -0.1 | duvelisib 0.041 | gandotinib -0.04 | tozasertib -0.043 | [4] 0.036 | doramapimod -0.009 | ispinesib 0.038 | bafetinib 0.032 | [5] -0.015 | nilotinib 0.024 | [6] -0.023 | dasatinib -0.068 | [7] -0.028 | [8] 0.068 | [9] -0.002 | tipifarnib -0.023 | mubritinib 0.011

CPNE2 (UniProt Q96FN4)
inactive: [1] 0.124 | crizotinib -0.034 | [2] 0.021 | [3] 0.055 | duvelisib -0.061 | gandotinib -0.315 | tozasertib 0.086 | [4] -0.141 | doramapimod -0.033 | ispinesib -0.017 | bafetinib -0.119 | [5] 0.132 | nilotinib 0.081 | [6] 0.067 | dasatinib 0.105 | [7] 0.053 | [8] 0 | [9] -0.018 | tipifarnib 0.09 | mubritinib 0.097

COLGALT1 (UniProt Q8NBJ5)
inactive: [1] 0.038 | crizotinib 0.075 | [2] -0.038 | [3] 0.15 | duvelisib -0.104 | gandotinib 0.101 | tozasertib 0.042 | [4] 0.051 | doramapimod 0.081 | ispinesib -0.029 | bafetinib 0.094 | [5] 0.025 | nilotinib -0.008 | [6] 0.07 | dasatinib 0.003 | [7] -0.036 | [8] -0.101 | [9] -0.017 | tipifarnib 0.077 | mubritinib -0.089

Reprinted from above (2 entries):
CRIPT (UniProt Q9P021)
inactive: [1] -0.008 | crizotinib 0.071 | [2] -0.127 | [3] -0.039 | duvelisib 0.097 | gandotinib 0 | tozasertib 0.025 | [4] -0.056 | doramapimod 0.011 | ispinesib 0.025 | bafetinib -0.022 | [5] 0.046 | nilotinib 0.011 | [6] 0.052 | dasatinib -0.057 | [7] -0.032 | [8] 0.061 | [9] -0.042 | tipifarnib 0.047 | mubritinib -0.015

CREBBP (UniProt Q92793)
inactive: [1] 0.021 | crizotinib 0.005 | [2] 0.041 | [3] -0.1 | duvelisib 0.041 | gandotinib -0.04 | tozasertib -0.043 | [4] 0.036 | doramapimod -0.009 | ispinesib 0.038 | bafetinib 0.032 | [5] -0.015 | nilotinib 0.024 | [6] -0.023 | dasatinib -0.068 | [7] -0.028 | [8] 0.068 | [9] -0.002 | tipifarnib -0.023 | mubritinib 0.011

Later entries

COX7A2 (UniProt P14406)
inactive: [1] -0.076 | crizotinib 0.071 | [2] 0.108 | [3] -0.009 | duvelisib 0.069 | gandotinib 0.019 | tozasertib 0.021 | [4] -0.082 | doramapimod 0.016 | ispinesib 0.085 | bafetinib -0.083 | [5] -0.01 | nilotinib 0.005 | [6] 0.034 | dasatinib 0.039 | [7] -0.103 | [8] -0.051 | [9] 0.132 | tipifarnib 0.021 | mubritinib 0.097

CSNK1A1L (UniProt Q8N752)
inactive: [1] -0.067 | crizotinib -0.094 | [2] -0.091 | [3] -0.01 | duvelisib 0.009 | gandotinib 0.006 | tozasertib -0.039 | [4] 0.03 | doramapimod 0.054 | ispinesib -0.088 | bafetinib 0.083 | [5] 0.105 | nilotinib -0.036 | [6] -0.004 | dasatinib -0.005 | [7] 0.066 | [8] -0.083 | [9] -0.047 | tipifarnib -0.016 | mubritinib -0.093

COPS2 (UniProt P61201)
inactive: [1] 0.016 | crizotinib 0.018 | [2] 0.098 | [3] -0.063 | duvelisib -0.014 | gandotinib -0.003 | tozasertib 0.015 | [4] 0.033 | doramapimod -0.024 | ispinesib 0.075 | bafetinib -0.012 | [5] 0.051 | nilotinib -0.003 | [6] -0.03 | dasatinib -0.068 | [7] -0.006 | [8] 0.024 | [9] 0.014 | tipifarnib -0.025 | mubritinib 0.034

CRACR2A isoform 2 (UniProt Q9BSW2)
inactive: [1] 0.101 | crizotinib 0.142 | [2] -0.08 | [3] 0.021 | duvelisib 0.122 | gandotinib 0.016 | tozasertib -0.012 | [4] -0.028 | doramapimod -0.004 | ispinesib 0.104 | bafetinib 0.038 | [5] -0.022 | nilotinib 0.056 | [6] -0.075 | dasatinib 0.018 | [7] 0.136 | [8] -0.044 | [9] -0.016 | tipifarnib -0.003 | mubritinib 0.111

CRPPA (UniProt A4D126)
inactive: [1] 0.025 | crizotinib 0.073 | [2] 0.081 | [3] -0.042 | duvelisib 0.052 | gandotinib -0.041 | tozasertib -0.008 | [4] -0.071 | doramapimod 0.007 | ispinesib 0.014 | bafetinib -0.035 | [5] -0.064 | nilotinib -0.016 | [6] 0.005 | dasatinib 0.013 | [7] -0.029 | [8] 0.004 | [9] 0.045 | tipifarnib 0.057 | mubritinib 0.082

COPB2 (UniProt P35606)
inactive: [1] 0.012 | crizotinib 0.039 | [2] -0.005 | [3] -0.026 | duvelisib 0.012 | gandotinib -0.034 | tozasertib -0.002 | [4] 0.005 | doramapimod -0.049 | ispinesib 0.1 | bafetinib -0.027 | [5] 0.012 | nilotinib -0.038 | [6] -0.021 | dasatinib -0.037 | [7] -0.001 | [8] 0.017 | [9] -0.019 | tipifarnib -0.031 | mubritinib 0.025

CRTAP (UniProt O75718)
inactive: [1] 0.023 | crizotinib 0.085 | [2] -0.094 | [3] 0.139 | duvelisib -0.047 | gandotinib 0.061 | tozasertib 0.038 | [4] 0.061 | doramapimod 0.012 | ispinesib -0.008 | bafetinib 0.083 | [5] 0.019 | nilotinib 0.022 | [6] 0.061 | dasatinib 0.013 | [7] -0.027 | [8] -0.094 | [9] -0.004 | tipifarnib 0.07 | mubritinib -0.134

COQ5 (UniProt Q5HYK3)
inactive: [1] 0.045 | crizotinib -0.069 | [2] 0.093 | [3] 0.02 | duvelisib 0.102 | gandotinib 0.022 | tozasertib -0.083 | [4] 0.02 | doramapimod 0.003 | ispinesib -0.016 | bafetinib -0.099 | [5] -0.057 | nilotinib 0.031 | [6] 0.001 | dasatinib -0.086 | [7] 0.001 | [8] 0.049 | [9] -0.005 | tipifarnib 0.02 | mubritinib 0.036
